From patent publication US11506670B2, “Method of genome-wide direct identification of electrophile-sensing targets” (Cornell University, priority 2018, dated 2022)
Some results were stated once for a whole list of compounds, not compound by compound.

Tested on: Ube2N
Assay: Lentiviral shRNA knockdown of Ube2N, western blot
Format: cell-based, human
Settings: relative to wt-lines and non-targeted shRNA lines
Description: HEK293T packaging cells were seeded and grown overnight in antibiotic free media in 6 well plates. At 80% confluence, each well was transfected with packaging plasmid (pCMV-R8.74psPAX2, 500 ng), envelope plasmid (pCMV-VSV-G, 50 ng) and pLKO vector (500 ng) using TransIT.LT1 as per the manufacturer's protocol. After 18 h, media were removed and replaced with 20% serum containing media. After 24 h, media containing viruses were collected, spun down and passed through a 0.6 micron filter and stored at −80° C. or used directly.
Cells in log phase were treated with 0.6 ml of virus supernatant (from above) in 8 μg/ml polybrene in a total of 6 ml of media in a 6-well plate. After 24 h, media were removed and replaced with media containing 2 μg/ml puromycin (which was completely toxic to all lines used in this study). Cells were cultured until the plate was confluent, then cells were split and moved to a 10 cm dish in 2 μg/ml puromycin containing media and grown again until reaching confluence. At this, the line was considered to be “selected”, and target gene expression was analyzed by western blot and compared to shRNA controls. […]
Cells were lysed in 1×RIPA buffer containing in final concentrations 1× Protease inhibitor, 1 mM sodium orthovanadate and 1 mM PMSF, by rapid freeze-thaw (×3). […] Protein concentration was determined using Bradford assay. […]

| Substance | reduction in Ube2N levels [%] |
| --- | --- |
| #16: shRNA targeting Ube2N in pLKO1 vector (SEQ ID NO: 63) (CCGGCCATAGAAACAGCTAGAGCATCTCGAGATGCTCTAGCTGTTTCTATGGTTTTTG) | > 50 |
| #17: shRNA targeting Ube2N in pLKO1 vector (SEQ ID NO: 64) (CCGGAGACAAGTTGGGAAGAATATGCTCGAGCATATTCTTCCCAACTTGTCTTTTTTG) | > 50 |
